The values below come from patent publication US20110008433A1, “Herbal Composition for Osteoarthritis” (priority 2009, published 2011).

This data set in a line: Total phenolics as gallic acid equivalent (Folin-Ciocalteu).

On to `O=C1O[C@H]([C@@H](O)CO)C(O)=C1O` [Vitamin C, vitamin C], for which the G.A. equivalent is, setting by setting: (0.01 mM) 1.15 mM; (0.03 mM) 2.34 mM; (0.10 mM) 7.20 mM.
For vitamin E the same measures were 1.05 mM, 2.36 mM and 3.71 mM.
